{"source": "the supplement of paper PMC4635364", "note": "Counter-ions that a name gives are not always drawn. Some of the results follow. This data set is noisy: repeats of one test often differ as much as different tests do.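 Cells: ReNCell VM human fetal ventral-midbrain neural progenitors, differentiated mitogen-free. Blinded raters compared doublecortin-stained (early neurons) or tyrosine hydroxylase-stained (dopaminergic neurons) images with untreated wells, where 0 means no change. After repeats and both raters were averaged, compounds scoring 2 or above became hits for retesting.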", "data": [{"tested_on": "ReNCell VM", "test": "dopaminergic neuron differentiation score (TH+ cell fraction vs untreated, manual image score) (score (0 to 3)); higher = more TH+ dopaminergic neuron differentiation", "conditions": "library: LOPAC; 2 uM; 4 weeks; BDNF 10 ng/ml + GDNF 10 ng/ml", "values": [{"molecule": "O=C(O)Cc1ccccc1Nc1c(Cl)cccc1Cl", "note": "[Diclofenac sodium]", "dopaminergic neuron differentiation score": "inactive: 0"}, {"molecule": "O=C(O)c1cc(=O)c2ccccc2[nH]1", "note": "[Kynurenic acid]", "dopaminergic neuron differentiation score": "inactive: 1"}, {"molecule": "CN(C)CCC=C1c2ccccc2C=Cc2ccccc21", "note": "[Cyclobenzaprine hydrochloride]", "dopaminergic neuron differentiation score": "inactive: 0"}, {"molecule": "Nc1nc2ccc(Cl)cc2c2nc(-c3ccco3)nn12", "dopaminergic neuron differentiation score": "inactive: 1"}, {"molecule": "CC(C)OC(=O)C(C)(C)Oc1ccc(C(=O)c2ccc(Cl)cc2)cc1", "note": "[Fenofibrate]", "dopaminergic neuron differentiation score": "inactive: 0"}, {"molecule": "Cc1ccc(S(=O)(=O)NC(=O)NN2CCCCCC2)cc1", "note": "[Tolazamide]", "dopaminergic neuron differentiation score": "inactive: 0"}, {"molecule": "CCCCc1oc2ccccc2c1C(=O)c1cc(I)c(OCCN(CC)CC)c(I)c1", "note": "[Amiodarone hydrochloride]", "dopaminergic neuron differentiation score": "inactive: 0"}, {"molecule": "CC[N+](C)(C)c1cccc(O)c1", "note": "[Edrophonium chloride]", "dopaminergic neuron differentiation score": "inactive: 0"}, {"molecule": "Nc1nc2c(ncn2COC(CO)CO)c(=O)[nH]1", "note": "[Ganciclovir]", "dopaminergic neuron differentiation score": "inactive: 0"}, {"molecule": "Cc1cc(C)c(/C=C2\\C(=O)Nc3ccccc32)[nH]1", "dopaminergic neuron differentiation score": "active: 3"}, {"molecule": "Cc1cnc(C(=O)NCCc2ccc(S(=O)(=O)NC(=O)NC3CCCCC3)cc2)cn1", "note": "[Glipizide]", "dopaminergic neuron differentiation score": "inactive: 0"}, {"molecule": "Cn1cnc2c(NCc3ccccc3)nc(NCCO)nc21", "note": "[Olomoucine]", "dopaminergic neuron differentiation score": "inactive: 0"}, {"molecule": "CC1COc2c(N3CCN(C)CC3)c(F)cc3c(=O)c(C(=O)O)cn1c23", "note": "(centres undefined) [Ofloxacin]", "dopaminergic neuron differentiation score": "inactive: 0"}, {"molecule": "Cc1cc(C(C)(C)C)cc(C)c1CC1=NCCN1", "note": "[Xylometazoline hydrochloride]", "dopaminergic neuron differentiation score": "inactive: 0"}, {"molecule": "C#C[C@]1(O)CC[C@H]2[C@@H]3CCC4=Cc5oncc5C[C@]4(C)[C@H]3CC[C@@]21C", "note": "[Danazol]", "dopaminergic neuron differentiation score": "inactive: 0"}, {"molecule": "CC(C)Cn1cnc2c(N)nc3ccccc3c21", "note": "[Imiquimod]", "dopaminergic neuron differentiation score": "inactive: 0"}, {"molecule": "CC(=O)CCCCn1c(=O)c2c(ncn2C)n(C)c1=O", "note": "[Pentoxifylline]", "dopaminergic neuron differentiation score": "inactive: 0"}, {"molecule": "Nc1ncnc2c1ncn2C1CCCO1", "note": "(centres undefined)", "dopaminergic neuron differentiation score": "inactive: 0"}, {"molecule": "CC(=O)O[C@]1(C(C)=O)CC[C@H]2[C@@H]3C=C(Cl)C4=CC(=O)[C@@H]5C[C@@H]5[C@]4(C)[C@H]3CC[C@@]21C", "note": "[Cyproterone acetate]", "dopaminergic neuron differentiation score": "inactive: 0"}, {"molecule": "C1CCC(N=C(NC23CC4CC(CC(C4)C2)C3)N2CCOCC2)CC1", "dopaminergic neuron differentiation score": "inactive: 0"}, {"molecule": "COc1cccc(-c2cc(=O)c3ccccc3o2)c1N", "dopaminergic neuron differentiation score": "inactive: 1"}, {"molecule": "CCCCCCC(=O)OC1CC(C)(C)NC(C)(C)C1", "note": "[TMPH hydrochloride]", "dopaminergic neuron differentiation score": "inactive: 0"}, {"molecule": "CCN(CC)CC(=O)Nc1c(C)cccc1C", "note": "[Lidocaine hydrochloride]", "dopaminergic neuron differentiation score": "inactive: 0"}, {"molecule": "NC1CCN(c2cccc(Cl)n2)CC1", "dopaminergic neuron differentiation score": "inactive: 0"}, {"molecule": "CCCc1c(OCCCOc2ccc(OCC(=O)O)cc2)ccc(C(C)=O)c1O", "dopaminergic neuron differentiation score": "inactive: 0"}, {"molecule": "COc1ccc(-c2ccc(=N)n(CCCC(=O)O)n2)cc1", "dopaminergic neuron differentiation score": "inactive: 0"}, {"molecule": "COCC(=O)O[C@]1(CCN(C)CCCc2nc3ccccc3[nH]2)CCc2cc(F)ccc2[C@@H]1C(C)C", "note": "[Mibefradil dihydrochloride]", "dopaminergic neuron differentiation score": "inactive: 0"}, {"molecule": "CCOC(=O)C(C)(C)Oc1ccc(Cl)cc1", "note": "[Clofibrate]", "dopaminergic neuron differentiation score": "inactive: 0"}, {"molecule": "CN(C)CCCO[C@@H]1[C@H]2OC(C)(C)O[C@H]2O[C@@H]1[C@H](O)CO", "note": "[Amiprilose hydrochloride]", "dopaminergic neuron differentiation score": "inactive: 1"}, {"molecule": "N=C(N)N1CCc2ccccc2C1", "note": "[Debrisoquin sulfate]", "dopaminergic neuron differentiation score": "inactive: 0"}, {"molecule": "C=C[C@@]1(C)CC(=O)[C@]2(O)[C@@]3(C)[C@@H](O)CCC(C)(C)[C@@H]3[C@H](O)[C@H](OC(C)=O)[C@@]2(C)O1", "note": "[Forskolin]", "dopaminergic neuron differentiation score": "inactive: 0"}, {"molecule": "O=C(OCCN1CCCCC1)c1c[nH]c2ccccc12", "dopaminergic neuron differentiation score": "inactive: 0"}, {"molecule": "CCCCC1C(=O)N(c2ccccc2)N(c2ccccc2)C1=O", "note": "[Phenylbutazone]", "dopaminergic neuron differentiation score": "inactive: 0"}, {"molecule": "C[C@H](CS)C(=O)N1CCC[C@H]1C(=O)O", "note": "[Captopril]", "dopaminergic neuron differentiation score": "inactive: 0"}]}]}
